Assays:
3T3 cells = assay: Survey of liquid crystals for alignment by cells; assay type: cell-based; details: cultured 3T3 cells
[1] = Phospholipid influence on liquid crystal alignment: DOPG; design: key: H=homeotropically aligned; U=unaligned; C=cholesteric alignment; details: 2 ul 0.01 M in chloroform on glass slide

SMILES: CCCCCc1ccc(-c2ccc(C#N)cc2)cc1 [5CB, 4-cyano-4′-pentylbiphenyl]
- Liquid crystal alignment, 3T3 cells (3T3 cells): Homeotropic
- Liquid crystal alignment, DOPG [1]: H

SMILES: CCCCCCCCc1ccc(-c2ccc(C#N)cc2)cc1 [4OCB, 4′-octyl-4-biphenyl-carbonitrile]
- Liquid crystal alignment, 3T3 cells (3T3 cells): Homeotropic

SMILES: CCCCCC[C@H]1CC[C@H](c2ccc(N=C=S)cc2)CC1 [6CHBT, 1-(trans-4-hexylcyclohexyl)-4-isothiocyanato-benzene]
- Liquid crystal alignment, 3T3 cells (3T3 cells): Homeotropic
- Liquid crystal alignment, DOPG [1]: H
